According to patent US20170210809A1 (DYAX, published 2017):
These are yes or no findings as the source states them, for the method shown. Some results given as binding are weak or reduced against the parent protein; the word gives no strength.

Chains of the proteins cited; added tags and fusions are not shown. Residues count along the entry.
UniProt P21860, residues 20-643: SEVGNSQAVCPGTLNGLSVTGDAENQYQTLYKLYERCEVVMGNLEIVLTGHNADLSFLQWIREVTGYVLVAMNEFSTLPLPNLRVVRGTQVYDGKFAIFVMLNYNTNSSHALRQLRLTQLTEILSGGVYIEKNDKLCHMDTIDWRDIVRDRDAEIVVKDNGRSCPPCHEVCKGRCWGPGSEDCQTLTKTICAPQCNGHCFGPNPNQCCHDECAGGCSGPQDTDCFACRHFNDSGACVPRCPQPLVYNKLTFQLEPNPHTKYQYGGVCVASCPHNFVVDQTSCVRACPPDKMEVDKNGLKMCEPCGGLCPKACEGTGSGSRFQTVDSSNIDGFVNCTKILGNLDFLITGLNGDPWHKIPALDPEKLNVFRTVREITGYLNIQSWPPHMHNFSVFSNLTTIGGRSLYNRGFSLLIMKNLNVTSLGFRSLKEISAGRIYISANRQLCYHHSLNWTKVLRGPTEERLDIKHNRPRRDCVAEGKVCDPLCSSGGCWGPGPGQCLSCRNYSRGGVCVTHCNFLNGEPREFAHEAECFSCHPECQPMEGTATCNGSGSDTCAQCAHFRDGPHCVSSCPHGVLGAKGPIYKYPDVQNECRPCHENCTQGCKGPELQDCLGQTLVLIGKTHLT

Biological target: ErbB3 (as used in the competition assays) (human) (UniProt P21860)
Experiment: competition assays

Row | binding | Binder
1 | binds | SEQ ID NO 44 (scFv) scFv: EVQLLESGGGLVQPGGSLRLSCAASGFTFSVYDMYWVRQAPGKGLEWVSYIYSSGGDTDYADSVKGRFTISRDNSKNTLYLQMNSLRAEDTATYYCARASTNSIYDAMDVWGQGTTVTVSSASTGGGGSGGGGSGGGGSDIQMTQSPSSVSASVGDRVTITCRASQDITNWLAWYQQKPGKAPTLLIYDASTLQSGVPSRFSGSGSGTDFTLTISSLQPEDFATYFCQQANGFPLTFGGGTKVEIK
2 | binds | SEQ ID NO 33 (scFv) scFv: EVQLLESGGGLVQPGGSLRLSCAASGFTFSAYNMRWVRQAPGKGLEWVSVIYPSGGATRYADSVKGRFTISRDNSKNTLYLQMNSLRAEDTAVYYCARGYYYYGMDVWGQGTLVTVSSASTGGGGSGGGGSGGGGSQSVLTQPPSASGTPGQRVTISCSGSDSNIGRNYIYWYQQFPGTAPKLLIYRNNQRPSGVPDRISGSKSGTSASLAISGLRSEDEAEYHCGTWDDSLSGPVFGGGTKLTVLS
